In data set [1] the test system is GST-HpWRKY3-C (Hylocereus (pitaya)). In words: EMSA. The conditions noted are these: EMSA: binding buffer (composition and pH not stated), 25 min at 30 C, 6% native PAGE, LightShift chemiluminescent kit; recombinant protein; protein details: GST (N-terminal, pGEX); label: 5' biotin. In general terms: Mobility shift assays separate free from complexed probe on a gel.

For data set [2] the test system is unchanged. Put plainly: competition with a labelled probe. The conditions noted are these: EMSA: binding buffer (composition and pH not stated), 25 min at 30 C, 6% native PAGE, LightShift chemiluminescent kit, recombinant protein, protein details: GST (N-terminal, pGEX), label: none (competitor).

Construct, isoform or probe ends are uncertain for at least one entry. For part of these data: Negatives hold for the conditions tested.

“GCACTGTGTTTATGATAATTGACCCGTTATTGACTGCCAAAAATTTGAATTTT (double strand) [HpSuSy1 promoter W-box probe]”: the binding result in data set [1] is reported as “binds”.

For the sequence “ACAAGGTCAAACCCTAAAATTTTAATTGGGGGCAATTTGGTCATTTG (double strand) [HpINV2 promoter W-box probe]”, the binding result in data set [1] was “binds”.

In the case of “GCACTGTGTTTATGATAAAAAAAACGTTAAAAAAAGCCAAAAATTTGAATTTT (double strand) [HpSuSy1 promoter W-box mutant probe]”, the binding result in data set [2] (excess over biotin-labeled HpSuSy1 probe) was “no binding”.

In the case of “ACAAAAAAAAACCCTAAAATTTTAATTGGGGGCAATTTGGTCATTTG (double strand) [HpINV2 promoter W-box mutant probe]”, the binding result in data set [2] (excess over biotin-labeled HpINV2 probe) is recorded as “no binding”.

For “GCACTGTGTTTATGATAATTGACCCGTTATTGACTGCCAAAAATTTGAATTTT (double strand) [HpSuSy1 promoter unlabeled probe]”, in data set [2] (excess over biotin-labeled HpSuSy1 probe, dose-dependent), the binding result is “binds”.

Take “ACAAGGTCAAACCCTAAAATTTTAATTGGGGGCAATTTGGTCATTTG (double strand) [HpINV2 promoter unlabeled probe]”: the binding result in data set [2] (excess over biotin-labeled HpINV2 probe, dose-dependent) is reported as “binds”.

(Values after paper PMC6514986.)
